Reference: PubChem BioAssay AID493014 (National Center for Advancing Translational Sciences (NCATS), 2011)
Hit rate of the full screen: of about 340,000 compounds, about 170 (0.05%) were called active. Inconclusive results, whose numbers are uncertain, are shown with a selection of clear calls. Calls follow the shape of the dose curve; as a rule, active = well fitted inhibition curve with a large enough effect in the signal ratio, with a control signal flat (not every such curve was filed as active); inconclusive = small, poorly fitted or top-dose-only effect, or effect the other way, or a change in a side signal; inactive = flat fitted curve, though single readings scatter; the % refers to the signal ratio. Where the call is inconclusive, the potency comes from a doubtful curve fit.

Test: qHTS Assay to Find Inhibitors of Chronic Active B-Cell Receptor Signaling;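 as to activity change, negative = inhibition: plate controls were basal doxycycline-induced cells for no effect and cells given 10 µM MG132 for full effect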
Conditions: ABC-DLBCL IkBa-CBG/CBR reporter, luminescence ratio (green luciferase fused to IkBa over red control in TMD8 lymphoma cells), 4 h; activity change, negative = inhibition: at 46.1 µM (top of the series)
In short: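 Cell line TMD8 (human ABC DLBCL), stably expressing tet-inducible CBG68-IkBa fusion and CBR; IMDM/0.5% FBS; cpd up to 46 uM; dox induction, 4 h, 37C/5% CO2; dual luminescence; green/red ratio; MG132 control.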
Potency is read from the fitted curve at half-maximal effect.

Q: With `C[C@@H](NC(=O)c1nc[nH]c1C(=O)NCc1ccc(CNC(=O)OC(C)(C)C)cc1)c1ccccc1` as the molecule, how does the activity change, negative = inhibition read?
A: inactive

Q: For `Cc1cc(C(=O)NCC(c2ccco2)N(C)C)ccc1[N+](=O)[O-]` (stereo not given), which activity change, negative = inhibition is on record?
A: inactive

Q: Which activity change, negative = inhibition does the source give for `CC1=NN(c2nc(-c3ccc(C)cc3)cs2)C(=O)C1N=Nc1cccc(O)c1` (stereo not given) here?
A: inactive

Q: For `Cc1cccc(-n2c(O)c(C=Nc3ccccc3O)c3ccccc3c2=O)n1`, which activity change, negative = inhibition is on record?
A: inconclusive: 13.7%

Q: With `Nc1c(Cl)ncnc1N1CCN(c2ncnc(Cl)c2N)CC1` as the molecule, how does the activity change, negative = inhibition read?
A: inconclusive: 0.402%

Q: For `Cc1c(NC(=O)COC(=O)C2CC3C=CC2C3)c(=O)n(-c2ccccc2)n1C` (stereo not given), which activity change, negative = inhibition is on record?
A: inactive

Q: For `O=C1C=CC(=O)N1CCCCCCN1C(=O)C=CC1=O`, which Potency is on record?
A: inconclusive: 8.2 µM [rising, partial curve]

Q: With `Cc1sc(NC(=O)CN2C(=O)NC3(CCCC3)C2=O)nc1-c1ccc(F)cc1` as the molecule, how does the activity change, negative = inhibition read?
A: inactive

Q: Which activity change, negative = inhibition does the source give for `COc1ccc(C(NC(C)=O)c2c(O)ccc3ccccc23)cc1OC` (stereo not given) here?
A: inconclusive: -29.9%

Q: With `CSc1ccc(CNCCCN(C)C)cc1` as the molecule, how does the Potency read?
A: inconclusive: 23.1 µM [falling, single point]

Q: Which Potency does the source give for `CCN(C(=O)COC(=O)c1ccc(OC)c(S(=O)(=O)N(C)Cc2ccccc2)c1)C1CCS(=O)(=O)C1` (stereo not given) here?
A: inconclusive: 25.9 µM [falling, partial curve]

Q: With `Cc1c(C(=O)c2no[n+]([O-])c2C(=O)c2cnn(C)c2C)cnn1C` as the molecule, how does the Potency read?
A: inconclusive: 5.62 µM [cytotoxic, single point]

Q: Which Potency does the source give for `Cc1ccc(-n2nc(C)c3c(C)c(CCC(=O)O)c(C)nc32)cc1C` here?
A: inconclusive: 22.4 µM [falling, single point]

Q: With `NS(=O)(=O)c1ccc(CCNC(=O)CCCOc2ccccc2)cc1` as the molecule, how does the activity change, negative = inhibition read?
A: inactive

Q: For `CCn1nc([N+](=O)[O-])c(C(C#N)c2nc3cc(C(F)(F)F)ccc3s2)c(Cl)c1=O` (stereo not given), which Potency is on record?
A: inconclusive: 13 µM [rising, partial curve]

Q: Which Potency does the source give for `CC(=O)c1c(C)[nH]c(C(=O)OCC(=O)Nc2cc(S(=O)(=O)N3CCCC3)ccc2Cl)c1C` here?
A: inconclusive: 7.31 µM [falling, partial curve]

Q: For `Cc1ccc(-c2ccc(/C=N/N=C3/NC(=O)C(CC(=O)O)S3)o2)c([N+](=O)[O-])c1` (stereo not given), which Potency is on record?
A: inconclusive: 29.1 µM [falling, partial curve, poor fit]

Q: For `CCOC(=O)c1cnc2ccc(C)cc2c1NCCO`, which activity change, negative = inhibition is on record?
A: inconclusive: -1.16%

Q: Which activity change, negative = inhibition does the source give for `COc1cc(OC)cc(-c2c(C#Cc3ccsc3)c3cc(-c4ccccc4OC)ccc3n2C)c1` here?
A: inconclusive: -0.546%

Q: Which Potency does the source give for `Cc1ccc(C(C)(C)C)cc1S(=O)(=O)N1CCC(C(=O)N2CCN(c3ccc(O)cc3)CC2)CC1` here?
A: inconclusive: 20.6 µM [falling, partial curve, poor fit]
